Screen size: about 340,000 compounds; about 6,200 (1.8%) were called active. Inconclusive means that the source gave no clear call. Such entries were picked first, then a sample of the others. Calls come from the whole dose curve; as a rule, active = well fitted activation curve with a large enough effect; inconclusive = small, poorly fitted or top-dose-only effect; inactive = no such curve, though single readings can be large or run the other way. A potency beside an inconclusive call is a rough fit, not a confirmed value.
Test: A quantitative high throughput screen for small molecules that induce DNA re-replication in SW480 colon adenocarcinoma cells. For re-replication activation: % of control where 0% means no effect. Note: nearly all actives have a fitted effect of over 55% in size.
Details: Hoechst DNA content imaging, 48 h; re-replication activation: at 46.1 µM (top of the series)
Procedure, shortened: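 Quantitative HTS format with DMSO vehicle controls; 48 hr drug incubation at 37 C, then 40 min Hoechst staining and scanning imager measurement at 405 nm excitation.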
Potency is the fitted concentration of half-maximal effect.

Structure (SMILES) | Potency | re-replication activation
Cc1ccc(O)c(C)c1 | inconclusive: 0.146 µM [activator, single point] | 
COc1ccc(-c2noc(=O)n2Cc2cc(C)ccc2C)cc1 | inconclusive: 23.1 µM [activator, single point] | 
O=c1[nH]c(O)c(/C=C2\C=Nc3ccc(OCc4ccccc4)cc32)c(=O)[nH]1 | active: 20.6 µM | 
COc1ccccc1CCNC1CCC(C(C)(C)C)CC1 (stereo not drawn) | inconclusive: 25.9 µM [activator, partial curve, poor fit] | 
CC(COc1ccccc1)N(CCCl)Cc1ccccc1 (stereo not drawn) | inconclusive: 0.231 µM [activator, single point] | 
CCN1/C(=C\C=C\C2=[N+](CC)c3ccccc3C2(C)C)C(C)(C)c2ccccc21 | inconclusive: 3.55 µM [activator, partial curve, poor fit] | 
CNCCc1c[nH]c2ccc(O)cc12 | inconclusive: 0.231 µM [activator, single point] | 
CCn1c(=N)n(Cc2ccccc2F)c2ccccc21 |  | inactive: 0.244%
O=C1NC(=O)N(Cc2ccc(F)cc2)C(=O)/C1=C\c1ccc([N+](=O)[O-])s1 | inconclusive: 18.4 µM [activator, single point] | 
O=C(CN1CCOCC1)c1ccc2cc[nH]c2c1 |  | inconclusive: 16.7% [activator]
CCn1c(O)c(C=Nc2ccc(N3CCOCC3)cc2)c(=O)n(CC)c1=S | inconclusive: 7.31 µM [activator, partial curve, poor fit] | 
Cn1cc(/C=C2\C(=O)NC(=O)N(c3ccccc3)C2=O)c2ccccc21 |  | inactive: 5.29%
COc1ccc(C(Nc2ccccc2)P(=O)(Oc2ccccc2)Oc2ccccc2)cc1 (stereo not drawn) | inconclusive: 4.11 µM [activator, full curve, poor fit] | 
COc1ccc(Cn2c(N)c(C(=O)NCc3ccco3)c3nc4ccccc4nc32)cc1OC | active: 0.517 µM | 
CCOC(=O)C1(c2ccccc2)CCN(CCC(=O)Nc2ccc(C(=O)OC)cc2)CC1 |  | inactive: 3.81%
CC1(C)CC(=O)c2cc(OCC(=O)N3CCN(Cc4ccccc4)CC3)ccc2O1 | inconclusive: 25.9 µM [activator, partial curve, poor fit] | 
Cc1ccc(CN2C3CCCC2CC(NC(=S)NCc2ccccc2)C3)cc1 (stereo not drawn) | inconclusive: 29.1 µM [activator, single point] | 
CCC1(C)OC(c2ccccc2)=C/C(=C/C=C2C(=O)NC(=O)NC2=O)O1 (stereo not drawn) | inconclusive: 16.4 µM [activator, partial curve, poor fit] | 
CCC1Nc2ncnc(N3CCN(c4ccccn4)CC3)c2N(Cc2ccc(Br)cc2)C1=O (stereo not drawn) | inconclusive: 5.8 µM [activator, partial curve] | 
Cc1cc(N2CCCC2)ccc1C=C(C#N)C#N |  | inactive: -13.9%
CCN(CCO)c1ccc(N=Cc2c(O)n(C)c(=S)[nH]c2=O)cc1 | inconclusive: 29.1 µM [activator, single point] | 
O=c1[nH]c(O)c(N=Nc2ccc(SC(F)F)cc2)c(=O)[nH]1 |  | inactive: 1.36%

Rewritten comma-delimited: 2 of the compounds above
Structure (SMILES),Potency,re-replication activation
COc1ccc(C(Nc2ccccc2)P(=O)(Oc2ccccc2)Oc2ccccc2)cc1 (stereo not drawn),"inconclusive: 4.11 µM [activator, full curve, poor fit]",
CC1(C)CC(=O)c2cc(OCC(=O)N3CCN(Cc4ccccc4)CC3)ccc2O1,"inconclusive: 25.9 µM [activator, partial curve, poor fit]",

Continuation:

Structure (SMILES) | Potency | re-replication activation
CCCCCCCn1c(=O)c(C(=O)Nc2cnccn2)c(O)c2ccccc21 | inconclusive: 11.6 µM [activator, single point] | 
CCOc1ccc(C2SCC(=O)Nc3c2c(=O)[nH]n3C2CCCCCC2)cc1 (stereo not drawn) | inconclusive: 16.4 µM [activator, single point] | 
CC(=O)c1c(O)n(-c2cccc(Cl)c2)c(=O)[nH]c1=O (tested in a mixture with another compound) |  | inactive: -1.61% [at 9.22 µM]
COC(=O)C1=C(c2cc3ccccc3s2)C[C@@H]2CC[C@H]1N2C(=O)NCCCOC(C)C |  | inactive: 1.46%
CCCCCCn1c(N)c(C(=O)NCCN2CCOCC2)c2nc3ccccc3nc21 | active: 20.6 µM | 
CCC1(O)C(=O)OCc2c1cc1n(c2=O)Cc2cc3c(N)cccc3nc2-1 (stereo not drawn) | inconclusive: 0.058 µM [activator, full curve, poor fit] | 
CCOP(=O)(/C(C#N)=C(\C)O)c1ccccc1 (stereo not drawn) |  | inactive: -82%
COc1ccc(-n2c(O)c(/C=C3\C=Nc4ccc(Br)cc43)c(=O)[nH]c2=O)c(OC)c1 | inconclusive: 16.4 µM [activator, single point] | 
C[C@]12CC(=O)CC1CCC1C2CC[C@@]2(C)C1CC[C@@H]2O (stereo partly drawn) | inconclusive: 18.4 µM [activator, single point] | 
COc1ccccc1-n1c(-c2ccccc2F)nc2ccccc2c1=O |  | inactive: 7.21%
CC(N)C(=O)NC1C2C(=C(O)CC(O)C2O)C(=O)OC1(C)C(Cl)Cl (stereo not drawn) | inconclusive: 10.3 µM [activator, partial curve, poor fit] | 
CN(C)CCN=Cc1c(O)n(CCC2=CCCCC2)c(=O)[nH]c1=O |  | inactive: -3.85%
CC(C)N1C(=O)/C(=C/C=C/c2ccco2)C(=O)N(Cc2ccco2)C1=O | inconclusive: 29.1 µM [activator, single point] | 
O=c1c2ccccc2nc(CNCc2ccco2)n1-c1ccc(F)cc1 |  | inactive: -3.03%
CC1CC(C)CC(C)C(O)C(C#N)=CC=CCC(C2CCCC2C(=O)O)OC(=O)CC(O)C(C)C1 (stereo not drawn) | inconclusive: 0.103 µM [activator, full curve, poor fit] | 
Cc1cccc(NC(=O)OC2CN3CCC2CC3)c1 (stereo not drawn) | inconclusive: 18.4 µM [activator, single point] | 
Cc1cccc(N2CCN(C(=O)c3ccc(CNc4c(N5CCC(C)CC5)c(=O)c4=O)cc3)CC2)c1C |  | inactive: 5.03%
CCN(CC)C(=O)[C@H]1C[C@H](CC(=O)NCC23CC4CC(CC(C4)C2)C3)C(=O)N2CCc3c([nH]c4cc(-c5ccco5)ccc34)[C@]12C | inconclusive: 2.31 µM [activator, single point] | 
Cc1cc(OCCCC(=O)NCc2cccs2)ccc1Cl | inconclusive: 29.1 µM [activator, single point] | 
CCOC(=O)c1c(-c2ccccc2)oc2ccc(OC(=O)N(C)C)cc12 | inconclusive: 23.1 µM [activator, single point] | 
CN1Cc2cnnn2-c2ccccc2C1C#N (stereo not drawn) | inconclusive: 0.731 µM [activator, single point] | 
